In test [1] the target is T1, Nuclear factor erythroid 2-related factor 2 (Nrf2), endogenous in SH-SY5Y cells (human (endogenous in SH-SY5Y)) (UniProt Q16236).
T1 sequence: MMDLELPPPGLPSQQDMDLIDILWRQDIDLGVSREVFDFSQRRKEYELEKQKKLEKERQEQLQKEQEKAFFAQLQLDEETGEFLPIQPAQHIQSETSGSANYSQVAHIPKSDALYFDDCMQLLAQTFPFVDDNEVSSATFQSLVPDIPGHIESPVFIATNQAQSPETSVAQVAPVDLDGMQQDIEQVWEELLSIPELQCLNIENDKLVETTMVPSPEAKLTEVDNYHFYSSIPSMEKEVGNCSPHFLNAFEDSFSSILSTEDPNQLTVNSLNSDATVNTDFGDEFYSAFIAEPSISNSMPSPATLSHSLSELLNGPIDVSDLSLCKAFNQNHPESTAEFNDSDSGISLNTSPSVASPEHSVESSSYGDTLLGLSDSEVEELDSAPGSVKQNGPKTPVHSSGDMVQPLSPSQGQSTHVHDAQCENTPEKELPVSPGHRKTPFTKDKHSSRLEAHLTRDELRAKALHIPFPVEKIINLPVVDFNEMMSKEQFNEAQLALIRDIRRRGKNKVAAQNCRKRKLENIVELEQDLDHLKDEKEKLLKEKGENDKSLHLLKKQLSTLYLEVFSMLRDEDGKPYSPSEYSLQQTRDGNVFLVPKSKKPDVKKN
The test is described as follows: co-IP; endogenous proteins in SH-SY5Y whole cell lysate; antibody 12 h at 4 °C, protein A/G magnetic beads, western blotting; cells under physiological or OGD/R conditions, treated with Cpd.51 (100 nM) or vehicle (DMSO). A general note: Immunoblotting shows a protein as a band on a membrane.

Test [2] deals with T2, GST-Nrf2 (YB710012, Ybio) (human) (UniProt Q16236).
T2 sequence: T1 sequence
Put plainly: pull-down; GST pull-down with GST-Nrf2 and truncated forms of DHRS3 (1-215, 1-190, 1-100 aa) beside the full-length protein; same method as the GST-Nrf2/DHRS3 pull-down.

In test [3] the target is T2, GST-Nrf2 (YB710012, Ybio) (human). The test is described as follows: pull-down; GST-Nrf2 (or GST as control) on GST resin 2 h at 4 °C; DHRS3 added with or without Cpd.51 (100 nM), rotated overnight at 4 °C; western blotting; both purified.

No constants are given. Whether binding was seen depends on the method and setting. For some assays here: Binding seen in cells or lysates may run through a third protein. Some results given as binding are weak or reduced against the parent protein; the word gives no strength. For some assays here: Sequences can lack the tags named with a protein.

B1: Dehydrogenase/reductase (SDR family) member 3 (DHRS3), endogenous in SH-SY5Y cells (protein, UniProt O75911 1-302)
chain: MVWKRLGALVMFPLQMIYLVVKAAVGLVLPAKLRDLSRENVLITGGGRGIGRQLAREFAERGARKIVLWGRTEKCLKETTEEIRQMGTECHYFICDVGNREEVYQTAKAVREKVGDITILVNNAAVVHGKSLMDSDDDALLKSQHINTLGQFWTTKAFLPRMLELQNGHIVCLNSVLALSAIPGAIDYCTSKASAFAFMESLTLGLLDCPGVSATTVLPFHTSTEMFQGMRVRFPNLFPPLKPETVARRTVEAVQLNQALLLLPWTMHALVILKSILPQAALEEIHKFSGTYTCMNTFKGRT
With B1, the binding result in test [1] was “binds”.

B2: DHRS3 (YB765100, Ybio) (protein, UniProt O75911 1-302)
chain: B1 chain
As to B2, the binding entry in test [2] and in test [3] was “binds” each time.

B3: DHRS3 fragment (1-190 aa) (domain or fragment, UniProt O75911 1-190)
chain: MVWKRLGALVMFPLQMIYLVVKAAVGLVLPAKLRDLSRENVLITGGGRGIGRQLAREFAERGARKIVLWGRTEKCLKETTEEIRQMGTECHYFICDVGNREEVYQTAKAVREKVGDITILVNNAAVVHGKSLMDSDDDALLKSQHINTLGQFWTTKAFLPRMLELQNGHIVCLNSVLALSAIPGAIDYCT
Take B3: in test [2], the binding entry was “binds”.

B4: DHRS3 fragment (1-215 aa) (domain or fragment, UniProt O75911 1-215)
chain: MVWKRLGALVMFPLQMIYLVVKAAVGLVLPAKLRDLSRENVLITGGGRGIGRQLAREFAERGARKIVLWGRTEKCLKETTEEIRQMGTECHYFICDVGNREEVYQTAKAVREKVGDITILVNNAAVVHGKSLMDSDDDALLKSQHINTLGQFWTTKAFLPRMLELQNGHIVCLNSVLALSAIPGAIDYCTSKASAFAFMESLTLGLLDCPGVSAT
As to B4, in test [2], the binding result is “binds”.

For the origin of these results see publication PMC13081163, “Discovery of a novel Nrf2 activator that modulates mitochondrial function in neurons by regulating DHRS3-Nrf2 interaction after ischemic stroke” (Theranostics, 2026).
